Assay results published in the supplement of paper PMC10849652.
The other results are listed elsewhere or left out.

Chains of the proteins cited; added tags and fusions are not shown. Lines headed by an entry give the natural chain unless they say otherwise; changes in a name come on top.
UniProt Q8N2M8: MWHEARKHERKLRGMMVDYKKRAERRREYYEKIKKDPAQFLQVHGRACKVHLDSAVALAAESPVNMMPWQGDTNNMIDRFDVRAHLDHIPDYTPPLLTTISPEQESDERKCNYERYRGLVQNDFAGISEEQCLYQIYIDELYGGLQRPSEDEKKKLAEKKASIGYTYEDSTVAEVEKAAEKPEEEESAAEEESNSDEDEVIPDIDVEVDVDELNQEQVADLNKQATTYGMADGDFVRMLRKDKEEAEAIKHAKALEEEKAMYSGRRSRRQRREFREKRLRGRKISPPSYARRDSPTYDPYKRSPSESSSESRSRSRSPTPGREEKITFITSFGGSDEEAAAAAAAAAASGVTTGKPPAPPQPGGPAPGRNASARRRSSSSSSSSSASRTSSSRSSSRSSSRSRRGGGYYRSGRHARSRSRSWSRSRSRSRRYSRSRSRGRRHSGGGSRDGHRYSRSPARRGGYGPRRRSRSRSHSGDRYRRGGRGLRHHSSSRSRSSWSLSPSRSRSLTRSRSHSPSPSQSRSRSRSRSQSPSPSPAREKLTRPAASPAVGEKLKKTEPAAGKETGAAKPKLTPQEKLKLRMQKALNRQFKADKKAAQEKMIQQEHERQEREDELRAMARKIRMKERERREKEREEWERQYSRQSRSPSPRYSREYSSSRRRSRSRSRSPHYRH
UniProt Q5EBM0: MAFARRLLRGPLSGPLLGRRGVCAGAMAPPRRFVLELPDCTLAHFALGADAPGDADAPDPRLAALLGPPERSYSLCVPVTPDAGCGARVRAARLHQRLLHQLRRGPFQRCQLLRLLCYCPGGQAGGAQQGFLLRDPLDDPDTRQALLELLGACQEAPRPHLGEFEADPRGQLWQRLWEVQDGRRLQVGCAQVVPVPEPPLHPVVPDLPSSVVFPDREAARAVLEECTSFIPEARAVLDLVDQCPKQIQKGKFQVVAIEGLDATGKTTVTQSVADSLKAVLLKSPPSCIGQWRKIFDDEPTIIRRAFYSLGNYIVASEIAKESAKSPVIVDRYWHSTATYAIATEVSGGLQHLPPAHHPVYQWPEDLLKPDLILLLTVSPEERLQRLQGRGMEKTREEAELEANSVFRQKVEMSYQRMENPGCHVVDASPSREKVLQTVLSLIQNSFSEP
UniProt Q15417: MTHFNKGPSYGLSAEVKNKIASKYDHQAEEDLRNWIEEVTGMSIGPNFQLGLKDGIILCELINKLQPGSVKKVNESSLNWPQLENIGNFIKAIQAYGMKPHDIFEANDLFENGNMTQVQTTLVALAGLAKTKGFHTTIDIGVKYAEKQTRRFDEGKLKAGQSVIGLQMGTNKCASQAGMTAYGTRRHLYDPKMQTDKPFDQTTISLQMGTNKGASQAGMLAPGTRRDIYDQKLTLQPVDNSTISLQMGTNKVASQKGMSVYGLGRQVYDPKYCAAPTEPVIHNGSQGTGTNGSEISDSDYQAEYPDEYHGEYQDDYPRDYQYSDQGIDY
UniProt Q96MX0: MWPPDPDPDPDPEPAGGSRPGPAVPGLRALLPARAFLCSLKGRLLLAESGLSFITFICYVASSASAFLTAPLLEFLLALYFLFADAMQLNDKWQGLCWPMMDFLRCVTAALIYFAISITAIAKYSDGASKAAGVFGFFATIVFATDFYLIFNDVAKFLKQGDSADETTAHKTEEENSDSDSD
UniProt P38432, whole entry, looked up: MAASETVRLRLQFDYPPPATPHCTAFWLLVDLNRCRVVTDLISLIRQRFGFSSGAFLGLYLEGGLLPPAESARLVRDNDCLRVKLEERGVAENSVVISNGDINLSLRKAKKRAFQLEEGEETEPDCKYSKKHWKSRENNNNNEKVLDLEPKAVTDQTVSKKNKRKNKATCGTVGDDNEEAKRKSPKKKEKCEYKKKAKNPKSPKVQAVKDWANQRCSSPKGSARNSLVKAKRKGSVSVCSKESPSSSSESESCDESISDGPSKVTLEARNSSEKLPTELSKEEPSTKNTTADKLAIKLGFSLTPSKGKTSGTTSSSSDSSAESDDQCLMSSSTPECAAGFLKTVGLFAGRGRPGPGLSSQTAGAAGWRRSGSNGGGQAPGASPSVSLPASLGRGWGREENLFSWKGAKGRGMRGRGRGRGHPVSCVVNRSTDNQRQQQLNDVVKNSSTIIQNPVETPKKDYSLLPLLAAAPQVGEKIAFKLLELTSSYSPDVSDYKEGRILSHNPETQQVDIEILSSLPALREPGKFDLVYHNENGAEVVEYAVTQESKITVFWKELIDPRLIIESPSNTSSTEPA
UniProt Q9NPF2: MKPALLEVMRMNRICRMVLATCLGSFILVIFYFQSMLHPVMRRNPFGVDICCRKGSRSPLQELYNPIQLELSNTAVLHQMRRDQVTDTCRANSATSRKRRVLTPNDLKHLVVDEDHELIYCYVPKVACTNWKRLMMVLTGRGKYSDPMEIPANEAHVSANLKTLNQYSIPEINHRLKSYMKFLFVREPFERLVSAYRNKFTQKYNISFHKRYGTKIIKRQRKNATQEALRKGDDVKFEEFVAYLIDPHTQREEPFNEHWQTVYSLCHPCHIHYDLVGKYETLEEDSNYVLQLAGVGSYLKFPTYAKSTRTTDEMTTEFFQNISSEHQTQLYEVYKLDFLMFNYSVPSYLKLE
UniProt Q86X95: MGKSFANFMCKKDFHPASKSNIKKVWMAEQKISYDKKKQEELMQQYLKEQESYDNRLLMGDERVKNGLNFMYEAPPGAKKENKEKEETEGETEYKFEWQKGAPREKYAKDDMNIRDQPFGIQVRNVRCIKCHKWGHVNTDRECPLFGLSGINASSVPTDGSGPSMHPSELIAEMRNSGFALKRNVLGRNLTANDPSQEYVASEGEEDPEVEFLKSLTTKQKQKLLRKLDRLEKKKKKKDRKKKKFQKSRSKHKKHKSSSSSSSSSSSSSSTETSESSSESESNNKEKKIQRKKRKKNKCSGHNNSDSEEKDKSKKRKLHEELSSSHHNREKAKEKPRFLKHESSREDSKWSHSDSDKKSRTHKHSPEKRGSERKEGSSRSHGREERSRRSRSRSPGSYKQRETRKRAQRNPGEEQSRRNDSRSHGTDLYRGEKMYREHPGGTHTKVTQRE
UniProt P30622: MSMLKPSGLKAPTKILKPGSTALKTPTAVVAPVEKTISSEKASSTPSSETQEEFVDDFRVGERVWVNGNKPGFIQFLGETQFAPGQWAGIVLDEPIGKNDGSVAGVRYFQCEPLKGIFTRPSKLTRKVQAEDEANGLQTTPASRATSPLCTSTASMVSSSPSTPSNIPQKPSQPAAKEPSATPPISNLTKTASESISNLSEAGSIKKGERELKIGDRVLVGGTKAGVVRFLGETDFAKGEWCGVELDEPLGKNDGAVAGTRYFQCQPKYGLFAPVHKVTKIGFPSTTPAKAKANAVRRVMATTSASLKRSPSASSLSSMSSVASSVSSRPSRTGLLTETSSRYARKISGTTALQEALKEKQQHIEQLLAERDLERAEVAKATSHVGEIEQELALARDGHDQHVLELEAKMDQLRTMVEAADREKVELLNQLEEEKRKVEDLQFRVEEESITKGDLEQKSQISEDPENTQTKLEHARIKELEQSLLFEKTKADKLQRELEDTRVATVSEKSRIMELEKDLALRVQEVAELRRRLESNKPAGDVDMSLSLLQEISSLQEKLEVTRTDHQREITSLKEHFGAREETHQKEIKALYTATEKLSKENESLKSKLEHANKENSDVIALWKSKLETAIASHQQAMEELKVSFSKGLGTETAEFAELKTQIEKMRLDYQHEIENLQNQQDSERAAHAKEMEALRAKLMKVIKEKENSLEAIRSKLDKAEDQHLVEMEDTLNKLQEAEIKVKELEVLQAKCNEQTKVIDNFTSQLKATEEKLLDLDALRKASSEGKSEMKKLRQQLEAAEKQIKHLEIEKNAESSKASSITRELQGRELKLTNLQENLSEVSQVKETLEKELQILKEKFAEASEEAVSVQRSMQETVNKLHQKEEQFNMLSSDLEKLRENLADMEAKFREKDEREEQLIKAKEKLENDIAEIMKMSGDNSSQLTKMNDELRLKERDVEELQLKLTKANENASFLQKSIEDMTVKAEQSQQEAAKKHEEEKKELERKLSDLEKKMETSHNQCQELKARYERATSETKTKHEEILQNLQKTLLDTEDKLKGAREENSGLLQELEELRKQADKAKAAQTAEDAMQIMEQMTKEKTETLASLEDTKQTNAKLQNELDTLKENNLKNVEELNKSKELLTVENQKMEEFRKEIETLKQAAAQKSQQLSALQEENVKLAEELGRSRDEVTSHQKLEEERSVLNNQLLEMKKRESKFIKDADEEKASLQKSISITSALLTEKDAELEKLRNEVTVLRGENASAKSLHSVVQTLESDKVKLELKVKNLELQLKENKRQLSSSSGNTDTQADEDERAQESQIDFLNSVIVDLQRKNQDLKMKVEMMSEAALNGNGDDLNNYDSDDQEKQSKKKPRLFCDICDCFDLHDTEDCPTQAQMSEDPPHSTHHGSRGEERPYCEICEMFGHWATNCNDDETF
UniProt Q8IZR5: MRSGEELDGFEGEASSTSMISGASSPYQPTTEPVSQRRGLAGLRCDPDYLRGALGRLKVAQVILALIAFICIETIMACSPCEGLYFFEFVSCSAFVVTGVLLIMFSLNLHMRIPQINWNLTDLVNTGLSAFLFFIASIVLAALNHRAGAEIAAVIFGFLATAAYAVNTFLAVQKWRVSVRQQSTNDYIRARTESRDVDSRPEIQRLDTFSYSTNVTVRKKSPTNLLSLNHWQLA
UniProt O43529: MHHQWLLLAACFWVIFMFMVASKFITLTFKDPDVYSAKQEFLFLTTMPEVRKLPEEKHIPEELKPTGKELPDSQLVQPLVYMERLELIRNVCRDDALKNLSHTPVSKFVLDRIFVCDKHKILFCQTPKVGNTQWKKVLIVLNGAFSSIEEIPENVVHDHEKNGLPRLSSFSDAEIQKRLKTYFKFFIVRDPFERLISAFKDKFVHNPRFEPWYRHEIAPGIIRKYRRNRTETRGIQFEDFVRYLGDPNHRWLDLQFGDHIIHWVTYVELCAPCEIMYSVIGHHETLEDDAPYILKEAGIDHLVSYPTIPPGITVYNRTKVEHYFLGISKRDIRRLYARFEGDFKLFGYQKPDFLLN
UniProt Q9P003: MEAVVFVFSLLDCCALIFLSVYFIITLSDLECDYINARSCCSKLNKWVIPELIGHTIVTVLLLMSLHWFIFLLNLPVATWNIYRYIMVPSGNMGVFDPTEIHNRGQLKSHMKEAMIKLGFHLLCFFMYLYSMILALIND
UniProt P33552, whole entry, looked up: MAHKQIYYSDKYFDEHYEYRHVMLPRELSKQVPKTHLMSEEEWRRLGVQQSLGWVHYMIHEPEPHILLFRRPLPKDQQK
UniProt Q9NRB3: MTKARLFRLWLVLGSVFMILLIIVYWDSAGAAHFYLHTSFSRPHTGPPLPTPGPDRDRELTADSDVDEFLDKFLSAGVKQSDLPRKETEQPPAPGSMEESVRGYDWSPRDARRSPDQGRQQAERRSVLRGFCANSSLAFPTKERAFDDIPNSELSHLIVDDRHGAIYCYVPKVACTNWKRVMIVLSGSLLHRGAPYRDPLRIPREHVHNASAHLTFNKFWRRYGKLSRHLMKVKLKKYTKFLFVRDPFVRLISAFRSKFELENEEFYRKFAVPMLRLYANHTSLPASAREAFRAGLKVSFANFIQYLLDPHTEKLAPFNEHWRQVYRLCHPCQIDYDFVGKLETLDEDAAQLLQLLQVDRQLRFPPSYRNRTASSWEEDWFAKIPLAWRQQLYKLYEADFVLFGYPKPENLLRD
UniProt G5E9Z2: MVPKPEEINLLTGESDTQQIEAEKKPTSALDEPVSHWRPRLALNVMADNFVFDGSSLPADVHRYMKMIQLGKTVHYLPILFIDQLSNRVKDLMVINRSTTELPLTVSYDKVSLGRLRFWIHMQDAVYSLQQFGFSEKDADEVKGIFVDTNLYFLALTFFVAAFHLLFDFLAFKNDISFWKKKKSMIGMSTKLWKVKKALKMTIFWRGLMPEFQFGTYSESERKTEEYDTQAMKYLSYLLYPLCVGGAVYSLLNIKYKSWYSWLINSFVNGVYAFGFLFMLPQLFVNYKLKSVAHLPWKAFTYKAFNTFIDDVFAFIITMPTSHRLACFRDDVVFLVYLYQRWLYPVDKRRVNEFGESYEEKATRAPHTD
UniProt Q9NWW5: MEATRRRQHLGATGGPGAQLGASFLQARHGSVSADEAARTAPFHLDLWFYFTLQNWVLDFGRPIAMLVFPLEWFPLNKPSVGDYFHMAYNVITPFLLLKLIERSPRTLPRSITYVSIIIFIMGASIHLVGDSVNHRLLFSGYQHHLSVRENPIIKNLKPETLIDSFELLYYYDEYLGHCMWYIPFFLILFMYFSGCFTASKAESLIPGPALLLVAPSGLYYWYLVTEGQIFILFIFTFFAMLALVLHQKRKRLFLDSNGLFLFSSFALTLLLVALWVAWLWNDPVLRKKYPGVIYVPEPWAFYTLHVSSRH
UniProt Q14011: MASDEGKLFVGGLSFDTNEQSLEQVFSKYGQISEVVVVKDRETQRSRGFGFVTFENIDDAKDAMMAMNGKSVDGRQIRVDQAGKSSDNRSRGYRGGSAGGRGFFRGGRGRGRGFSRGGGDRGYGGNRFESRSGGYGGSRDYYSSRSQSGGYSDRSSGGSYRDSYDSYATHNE

compound: Cc1ccc(NC(=O)c2ccc(CN3CC[C@H](N(C)C)C3)c(C(F)(F)F)c2)cc1Nc1nccc(-c2cncnc2)n1 [bafetinib]; experiment: log2 fold change, soluble protein after heating vs DMSO (PISA); higher = thermal stabilisation; K562 cells, 10 uM, 30 min; active = over 0.2 and 3.5 SD of the protein, either way, in both replicates (recomputed)
Method in brief: (§1)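 Thermal stability values are relative to control samples and come from duplicates. They are expressed as log2 fold changes. For measurement, K562 cells (2×10^6 cells/mL) received 10 μM compound for 30 min, and aliquots were heated for 3 min over 48°C-58°C, pooled, and extracted at 4°C in PBS with 0.5% NP-40. Soluble protein, the supernatant after 21,000xg for 90 min, was quantified by TMTpro 16plex LC-MS/MS with equalised channel sums.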

log2 fold change, inactive:
CHPF (UniProt Q8IZ52) 0.189, CIAO2B (UniProt Q9Y3D0) 0.099, CNOT8 (UniProt Q9UFF9) 0.019, CLASRP (UniProt Q8N2M8) 0.035, CMPK2 (UniProt Q5EBM0) 0.015, CNN3 (UniProt Q15417) 0.02, CLASP2 (UniProt O75122) -0.098, CMTM3 (UniProt Q96MX0) 0.05, CLN3 (UniProt Q13286) -0.099, CLINT1 (UniProt Q14677) -0.053, COIL (UniProt P38432) 0.378, COL15A1 (UniProt P39059) 0.25, CHST11 (UniProt Q9NPF2) -0.01, CLIC6 (UniProt Q96NY7) 0.005, CIR1 (UniProt Q86X95) 0.001, CMTM6 (UniProt Q9NX76) -0.014, CLIP1 isoform 2 (UniProt P30622) -0.05, CMTM4 (UniProt Q8IZR5) -0.125, CHST10 (UniProt O43529) -0.036, CNIH4 (UniProt Q9P003) 0.122, CKS2 (UniProt P33552) -0.021, CHST12 (UniProt Q9NRB3) -0.261, CMYA5 (UniProt Q8N3K9) -0.308, CMIP (UniProt Q8IY22) 0, CHST2 (UniProt Q9Y4C5) -0.032, CLPTM1L (UniProt G5E9Z2) 0.156, CLN6 (UniProt Q9NWW5) 0.045, CHURC1-FNTB (UniProt B4DL54) -0.032, CNOT11 (UniProt Q9UKZ1) -0.048, CLSTN1 (UniProt O94985) -0.159, CLEC3B (UniProt P05452) -0.253, CIRBP (UniProt Q14011) 0.155

compound: Cc1cccc(CC(=O)N2CCc3c2ccc(-c2cn(C)c4ncnc(N)c24)c3F)n1; experiment: as above
Method in brief: as §1

log2 fold change, inactive:
CLASRP (UniProt Q8N2M8) -0.042, CMPK2 (UniProt Q5EBM0) 0.021, CNN3 (UniProt Q15417) -0.025, CMTM3 (UniProt Q96MX0) -0.078, CHST11 (UniProt Q9NPF2) -0.117, CIR1 (UniProt Q86X95) -0.091, CLIP1 isoform 2 (UniProt P30622) 0.08, CHST10 (UniProt O43529) 0.052, CKS2 (UniProt P33552) 0.048, CHST12 (UniProt Q9NRB3) -0.059, CMIP (UniProt Q8IY22) 0.115, CLPTM1L (UniProt G5E9Z2) 0.176, CHURC1-FNTB (UniProt B4DL54) -0.158, CLSTN1 (UniProt O94985) -0.182, CIRBP (UniProt Q14011) -0.054

compound: Cc1cn(-c2cc(NC(=O)c3ccc(C)c(Nc4nccc(-c5cccnc5)n4)c3)cc(C(F)(F)F)c2)cn1 [nilotinib]; experiment: as above
Method in brief: as §1

log2 fold change, inactive:
CHPF (UniProt Q8IZ52) 0.018, CIAO2B (UniProt Q9Y3D0) -0.014, CNOT8 (UniProt Q9UFF9) -0.002, CLASRP (UniProt Q8N2M8) 0.093, CMPK2 (UniProt Q5EBM0) -0.004, CNN3 (UniProt Q15417) -0.066, CLASP2 (UniProt O75122) 0.014, CMTM3 (UniProt Q96MX0) -0.056, CLN3 (UniProt Q13286) -0.016, CLINT1 (UniProt Q14677) 0.065, COIL (UniProt P38432) -0.127, COL15A1 (UniProt P39059) 0.092, CHST11 (UniProt Q9NPF2) 0.049, CLIC6 (UniProt Q96NY7) 0.08, CMTM6 (UniProt Q9NX76) 0.101, CLIP1 isoform 2 (UniProt P30622) 0.012, CMTM4 (UniProt Q8IZR5) 0.194, CHST10 (UniProt O43529) 0.092, CNIH4 (UniProt Q9P003) -0.084, CKS2 (UniProt P33552) -0.008, CMYA5 (UniProt Q8N3K9) -0.109, CHST2 (UniProt Q9Y4C5) 0.114, CLPTM1L (UniProt G5E9Z2) -0.22, CLN6 (UniProt Q9NWW5) 0, CNOT11 (UniProt Q9UKZ1) -0.094, CLEC3B (UniProt P05452) 0.072, CIRBP (UniProt Q14011) -0.004
